Results: paper PMC12611769, “Phase-separated NDF−FACT condensates facilitate transcription elongation on chromatin” (Nature Cell Biology, 2025)

The chains behind the UniProt entries cited, without tags or fusion partners.
UniProt Q9Y5B9: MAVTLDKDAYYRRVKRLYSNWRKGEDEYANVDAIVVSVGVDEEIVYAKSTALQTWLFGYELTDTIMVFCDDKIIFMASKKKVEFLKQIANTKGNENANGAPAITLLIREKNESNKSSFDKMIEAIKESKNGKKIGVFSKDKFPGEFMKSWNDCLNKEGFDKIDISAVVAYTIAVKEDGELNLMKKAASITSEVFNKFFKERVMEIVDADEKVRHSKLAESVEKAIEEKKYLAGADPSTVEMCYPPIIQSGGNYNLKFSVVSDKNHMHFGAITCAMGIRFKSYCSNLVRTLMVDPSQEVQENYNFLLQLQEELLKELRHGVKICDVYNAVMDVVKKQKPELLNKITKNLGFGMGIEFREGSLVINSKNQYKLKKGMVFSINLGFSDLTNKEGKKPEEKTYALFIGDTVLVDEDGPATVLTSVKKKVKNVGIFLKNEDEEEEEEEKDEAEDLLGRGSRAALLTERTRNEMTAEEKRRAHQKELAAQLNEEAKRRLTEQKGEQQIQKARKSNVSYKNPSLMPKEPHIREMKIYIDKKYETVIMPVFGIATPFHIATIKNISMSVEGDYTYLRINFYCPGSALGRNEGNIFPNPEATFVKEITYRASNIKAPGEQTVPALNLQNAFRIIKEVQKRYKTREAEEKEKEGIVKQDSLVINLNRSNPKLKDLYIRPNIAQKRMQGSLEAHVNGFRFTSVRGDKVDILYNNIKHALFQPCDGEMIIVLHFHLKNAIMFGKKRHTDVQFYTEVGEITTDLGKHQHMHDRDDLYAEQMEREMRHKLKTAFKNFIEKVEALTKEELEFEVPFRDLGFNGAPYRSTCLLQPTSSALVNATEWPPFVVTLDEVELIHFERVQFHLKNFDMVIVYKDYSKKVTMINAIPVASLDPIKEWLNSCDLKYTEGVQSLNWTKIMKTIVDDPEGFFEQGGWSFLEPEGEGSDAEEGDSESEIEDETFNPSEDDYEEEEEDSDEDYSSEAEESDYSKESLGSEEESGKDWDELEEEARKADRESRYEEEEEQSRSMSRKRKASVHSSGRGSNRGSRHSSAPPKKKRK
UniProt Q08945: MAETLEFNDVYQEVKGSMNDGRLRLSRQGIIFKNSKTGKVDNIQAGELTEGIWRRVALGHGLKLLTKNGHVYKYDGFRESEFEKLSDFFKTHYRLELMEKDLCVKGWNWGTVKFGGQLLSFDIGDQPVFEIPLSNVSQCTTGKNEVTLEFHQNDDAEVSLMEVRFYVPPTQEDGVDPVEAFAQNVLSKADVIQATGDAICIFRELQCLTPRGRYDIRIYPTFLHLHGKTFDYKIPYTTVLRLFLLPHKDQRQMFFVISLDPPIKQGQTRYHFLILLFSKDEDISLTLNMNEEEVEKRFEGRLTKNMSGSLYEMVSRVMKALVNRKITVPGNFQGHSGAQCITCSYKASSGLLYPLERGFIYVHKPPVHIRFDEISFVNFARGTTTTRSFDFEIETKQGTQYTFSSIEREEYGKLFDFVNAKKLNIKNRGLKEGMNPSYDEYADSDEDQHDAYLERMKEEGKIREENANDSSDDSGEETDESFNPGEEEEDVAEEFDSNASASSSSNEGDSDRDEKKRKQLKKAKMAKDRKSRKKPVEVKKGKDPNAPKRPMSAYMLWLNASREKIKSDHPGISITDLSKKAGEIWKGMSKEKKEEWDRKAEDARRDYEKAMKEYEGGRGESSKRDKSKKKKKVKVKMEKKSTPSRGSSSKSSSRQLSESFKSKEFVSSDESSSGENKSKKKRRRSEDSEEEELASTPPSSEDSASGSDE

Target: T1, hNDF-Flag-GFP (human nucleosome destabilizing factor, GFP- and Flag-tagged) (human) (UniProt Q49A26)
T1 sequence: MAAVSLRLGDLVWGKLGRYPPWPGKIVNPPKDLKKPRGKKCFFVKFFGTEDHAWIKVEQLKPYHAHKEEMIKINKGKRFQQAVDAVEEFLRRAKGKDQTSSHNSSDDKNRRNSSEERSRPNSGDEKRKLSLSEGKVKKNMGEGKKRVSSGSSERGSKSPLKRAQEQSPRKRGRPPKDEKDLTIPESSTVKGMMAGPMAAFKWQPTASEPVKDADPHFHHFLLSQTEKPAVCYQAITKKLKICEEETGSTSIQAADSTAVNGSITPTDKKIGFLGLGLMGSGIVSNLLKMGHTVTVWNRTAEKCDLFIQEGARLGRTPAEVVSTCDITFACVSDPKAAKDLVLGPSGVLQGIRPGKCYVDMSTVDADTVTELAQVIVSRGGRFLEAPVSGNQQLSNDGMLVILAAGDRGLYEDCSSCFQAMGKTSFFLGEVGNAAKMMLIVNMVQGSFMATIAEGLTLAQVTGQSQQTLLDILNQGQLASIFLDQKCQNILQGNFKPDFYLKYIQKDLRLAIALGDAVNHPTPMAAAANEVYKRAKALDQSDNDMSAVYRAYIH
Experiment: affinity purification with mass spectrometry; tandem affinity purification (Flag M2 agarose, Flag peptide elution, then GFP-Trap beads) of NDF-Flag-GFP from sonicated HeLa lysate in NETN buffer (20 mM Tris-HCl pH 8.0, 100 mM NaCl, 0.5% Nonidet P-40), 4 °C

Row | binding | Substance
1 | binds | Spt16 (SUPT16H), subunit of the human FACT complex, endogenous (from UniProt Q9Y5B9 1-1047)
2 | binds | SSRP1, subunit of the human FACT complex, endogenous (from UniProt Q08945 1-709)

These are yes or no findings as the source states them, for the method shown. In cells and extracts the contact can be indirect. Here binding means that the protein was enriched with, or labelled near, the bait; the list need not be complete. Sequences can lack the tags named with a protein.
